Results are given in words; binding and its absence hold for the method and conditions named. For part of these data: Binding calls can cover weak binding; strength is not graded here.
Columns and labels:
Experiment in all cases: two-hybrid; DUALhybrid Kit; pLexA-N bait and pGAD-HA prey vectors in yeast; ß-galactosidase assay (blue: interaction, white: no interaction)
[1] = target: pLexA-mB (region containing the motif B of a BET protein) (mouse)
[2] = target: pLexA-ET (ET domain of a BET protein) (mouse)
[3] = target: pLexA-BRD2 (truncated BRD2 bait lacking the bromodomains) (mouse) (UniProt Q7JJ13)

The chains behind the UniProt entries cited, without tags or fusion partners. Where a name states a change or a piece, a line headed by the entry shows the natural chain unless it says otherwise.
UniProt Q7JJ13: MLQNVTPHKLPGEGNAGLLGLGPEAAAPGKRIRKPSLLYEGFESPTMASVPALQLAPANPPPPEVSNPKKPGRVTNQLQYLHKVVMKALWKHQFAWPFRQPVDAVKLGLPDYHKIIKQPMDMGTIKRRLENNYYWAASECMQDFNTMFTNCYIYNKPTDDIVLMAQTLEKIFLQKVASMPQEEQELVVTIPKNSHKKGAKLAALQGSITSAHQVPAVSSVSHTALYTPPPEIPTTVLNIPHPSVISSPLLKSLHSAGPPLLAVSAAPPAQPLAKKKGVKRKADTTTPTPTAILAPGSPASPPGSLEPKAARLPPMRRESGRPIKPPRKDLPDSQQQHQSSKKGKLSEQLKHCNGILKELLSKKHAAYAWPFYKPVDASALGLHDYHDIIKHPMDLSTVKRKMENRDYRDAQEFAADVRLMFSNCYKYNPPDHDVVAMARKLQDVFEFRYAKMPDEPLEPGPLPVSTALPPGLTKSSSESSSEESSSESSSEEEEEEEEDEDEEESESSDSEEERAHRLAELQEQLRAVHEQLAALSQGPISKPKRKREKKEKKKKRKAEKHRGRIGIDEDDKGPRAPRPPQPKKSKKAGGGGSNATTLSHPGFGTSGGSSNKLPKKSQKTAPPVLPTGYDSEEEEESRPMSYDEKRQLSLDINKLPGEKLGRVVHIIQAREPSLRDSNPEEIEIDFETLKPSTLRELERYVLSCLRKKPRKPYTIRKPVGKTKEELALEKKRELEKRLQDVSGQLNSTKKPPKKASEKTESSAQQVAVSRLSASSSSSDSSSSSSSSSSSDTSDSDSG

B1: NIPBL prey clone (amino acids 212–449) (domain or fragment, UniProt Q6KCD5 212-449)
chain: AGGLRNIHDNKVSGPLSGNSANHHADNPRHGSSDDYLHMVHRLSSDDGDSSTMRNAASFPLRSPQPVCSPAGSDGTPKGSRPPLILQSQSLPCSSPRDVPPDILLDSPERKQKKQKKIKLGKDEKDQNEKAAMYDIISSPTKDSTKLTLRLSRVRSSDMDQQDDMLSGMENSNVSENDIPFNVQYPGQTSKTPITPQDVNRPLNAAQCLSQQEQTAFLPANQVPVLQQNTSVATKQPQ
binding [1]: no binding | binding [2]: binds | binding [3]: binds
